Results as given in US20170369529A1 (Hoffmann-La Roche Inc., priority 2014, published 2017).

Assay: general procedure: Fmoc solid-phase peptide synthesis; Fmoc-Rink Amide MBHA resin; HBTU or DIC, with HOBT (embodiment)
Conditions: whole synthesis, scale 0.1 mmol, TFA salt

In the case of “Fluo-Met-Ile-Ile-Leu-Ile-Ile-Gly-Ser-Thr-Ser-Arg-Asp-His-Met-Val-Leu-His-Glu-Tyr-Val-Asn-Ala-Ala-Gly-Ile-Thr-NH2 (MIILIIGSTSRDHMVLHEYVNAAGIT; N-terminal fluorescein, C-terminal amide; /note=“N-term Fluo”; /note=“C-term NH2”)”, the “final HPLC purity” value (analytical HPLC (Agilent 1200), TFA buffer system) is reported as “>=99%” and the crude mass is reported as “˜190 mg”.
